# Laboratory results as given in patent US20120121591A1 (priority 2009, published 2012).
# Experiment: peptide synthesis
# Conditions: conjugation step, 215 nm
substance,measurement,value
Nα-(20 kDa PEG)-[Lys16]ShK-Ala,final HPLC purity,>99%
